Experimental data: the supplement of paper PMC12067093, “Discovery and optimisation of a covalent ligand for TRIM25 and its application to targeted protein ubiquitination” (Chemical Science, 2025)
The other results are listed elsewhere or left out.

Amino acid sequences for entries named in this document (tags omitted). A change or cut given only in a name is not applied to a line headed by its entry.
UniProt O95630, whole entry, looked up: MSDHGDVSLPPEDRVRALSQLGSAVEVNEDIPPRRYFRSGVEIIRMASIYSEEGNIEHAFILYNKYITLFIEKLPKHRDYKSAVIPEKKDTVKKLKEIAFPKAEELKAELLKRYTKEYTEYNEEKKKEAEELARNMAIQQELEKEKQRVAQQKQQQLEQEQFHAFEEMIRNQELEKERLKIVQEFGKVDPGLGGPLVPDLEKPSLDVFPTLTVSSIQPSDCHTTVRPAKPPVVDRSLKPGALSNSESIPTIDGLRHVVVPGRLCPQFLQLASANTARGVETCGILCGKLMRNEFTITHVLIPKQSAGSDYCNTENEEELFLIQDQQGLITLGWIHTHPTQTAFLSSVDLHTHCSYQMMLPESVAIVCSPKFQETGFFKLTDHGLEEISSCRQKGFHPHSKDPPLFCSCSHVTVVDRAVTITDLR
UniProt Q12846: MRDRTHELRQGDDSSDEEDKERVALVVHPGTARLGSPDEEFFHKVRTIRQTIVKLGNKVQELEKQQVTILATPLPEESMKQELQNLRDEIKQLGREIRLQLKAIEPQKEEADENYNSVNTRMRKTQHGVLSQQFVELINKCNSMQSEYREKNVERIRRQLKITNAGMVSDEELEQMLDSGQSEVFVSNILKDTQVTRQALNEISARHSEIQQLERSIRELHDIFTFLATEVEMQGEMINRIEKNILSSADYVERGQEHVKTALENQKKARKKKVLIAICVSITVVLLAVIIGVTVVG
UniProt Q15022: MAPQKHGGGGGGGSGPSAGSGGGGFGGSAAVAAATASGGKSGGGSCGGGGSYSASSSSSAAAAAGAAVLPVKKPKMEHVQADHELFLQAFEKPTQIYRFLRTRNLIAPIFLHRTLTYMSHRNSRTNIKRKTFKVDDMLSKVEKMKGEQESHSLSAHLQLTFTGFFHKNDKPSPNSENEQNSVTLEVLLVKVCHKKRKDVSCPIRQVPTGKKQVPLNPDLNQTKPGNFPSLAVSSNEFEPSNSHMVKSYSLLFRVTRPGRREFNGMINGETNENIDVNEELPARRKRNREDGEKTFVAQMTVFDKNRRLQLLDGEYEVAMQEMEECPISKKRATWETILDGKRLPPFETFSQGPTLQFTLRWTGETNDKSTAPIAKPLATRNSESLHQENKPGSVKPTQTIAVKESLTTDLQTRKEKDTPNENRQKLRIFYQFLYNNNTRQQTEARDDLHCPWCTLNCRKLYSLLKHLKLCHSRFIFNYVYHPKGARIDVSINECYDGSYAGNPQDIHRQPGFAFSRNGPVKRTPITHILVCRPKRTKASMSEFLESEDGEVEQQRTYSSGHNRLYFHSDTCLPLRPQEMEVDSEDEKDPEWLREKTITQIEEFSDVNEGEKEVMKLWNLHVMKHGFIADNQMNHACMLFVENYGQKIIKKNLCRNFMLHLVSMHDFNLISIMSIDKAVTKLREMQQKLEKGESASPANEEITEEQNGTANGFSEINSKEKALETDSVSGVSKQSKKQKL
UniProt O00186: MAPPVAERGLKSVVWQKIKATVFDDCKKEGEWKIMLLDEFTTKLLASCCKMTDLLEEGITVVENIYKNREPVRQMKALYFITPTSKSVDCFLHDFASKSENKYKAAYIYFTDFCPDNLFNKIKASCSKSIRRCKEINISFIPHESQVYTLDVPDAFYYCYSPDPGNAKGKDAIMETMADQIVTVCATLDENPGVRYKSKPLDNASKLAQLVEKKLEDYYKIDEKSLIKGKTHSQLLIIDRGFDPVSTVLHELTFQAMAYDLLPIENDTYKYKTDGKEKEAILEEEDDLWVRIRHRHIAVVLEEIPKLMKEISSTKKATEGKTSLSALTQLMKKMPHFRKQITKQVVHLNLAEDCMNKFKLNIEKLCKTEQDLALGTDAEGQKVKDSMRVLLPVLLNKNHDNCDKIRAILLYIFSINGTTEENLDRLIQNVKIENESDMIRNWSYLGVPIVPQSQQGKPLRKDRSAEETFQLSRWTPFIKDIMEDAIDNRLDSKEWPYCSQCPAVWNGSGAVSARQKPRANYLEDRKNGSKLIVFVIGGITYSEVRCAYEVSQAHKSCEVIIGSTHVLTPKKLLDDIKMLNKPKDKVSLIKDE
UniProt Q8IX01: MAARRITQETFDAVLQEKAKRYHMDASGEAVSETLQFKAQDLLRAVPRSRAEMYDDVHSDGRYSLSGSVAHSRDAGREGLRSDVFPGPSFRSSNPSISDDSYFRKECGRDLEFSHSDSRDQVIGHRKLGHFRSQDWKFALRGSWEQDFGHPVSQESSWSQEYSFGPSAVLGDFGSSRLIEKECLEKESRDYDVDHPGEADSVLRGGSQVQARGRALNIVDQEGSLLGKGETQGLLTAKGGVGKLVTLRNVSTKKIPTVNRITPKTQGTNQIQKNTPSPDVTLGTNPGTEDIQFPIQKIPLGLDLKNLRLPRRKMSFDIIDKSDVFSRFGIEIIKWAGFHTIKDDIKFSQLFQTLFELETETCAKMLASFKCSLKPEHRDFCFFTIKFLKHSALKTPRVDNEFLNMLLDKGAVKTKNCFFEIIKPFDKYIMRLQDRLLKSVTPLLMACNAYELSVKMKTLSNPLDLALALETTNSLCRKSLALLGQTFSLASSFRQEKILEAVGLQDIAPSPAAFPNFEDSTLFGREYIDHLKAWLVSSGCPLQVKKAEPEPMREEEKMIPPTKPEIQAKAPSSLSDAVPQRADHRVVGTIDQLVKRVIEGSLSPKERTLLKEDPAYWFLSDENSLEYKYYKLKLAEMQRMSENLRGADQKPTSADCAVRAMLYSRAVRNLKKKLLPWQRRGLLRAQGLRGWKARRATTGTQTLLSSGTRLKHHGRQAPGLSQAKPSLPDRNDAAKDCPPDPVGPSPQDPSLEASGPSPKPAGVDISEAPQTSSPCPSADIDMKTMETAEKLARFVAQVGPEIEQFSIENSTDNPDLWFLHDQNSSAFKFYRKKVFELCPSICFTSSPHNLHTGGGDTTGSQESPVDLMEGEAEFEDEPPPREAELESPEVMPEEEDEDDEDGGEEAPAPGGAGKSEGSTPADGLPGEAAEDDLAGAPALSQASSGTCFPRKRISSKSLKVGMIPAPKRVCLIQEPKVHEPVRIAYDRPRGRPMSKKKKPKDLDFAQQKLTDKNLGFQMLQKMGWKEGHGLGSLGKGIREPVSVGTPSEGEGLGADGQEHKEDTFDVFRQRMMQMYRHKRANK
UniProt O95425, whole entry, looked up: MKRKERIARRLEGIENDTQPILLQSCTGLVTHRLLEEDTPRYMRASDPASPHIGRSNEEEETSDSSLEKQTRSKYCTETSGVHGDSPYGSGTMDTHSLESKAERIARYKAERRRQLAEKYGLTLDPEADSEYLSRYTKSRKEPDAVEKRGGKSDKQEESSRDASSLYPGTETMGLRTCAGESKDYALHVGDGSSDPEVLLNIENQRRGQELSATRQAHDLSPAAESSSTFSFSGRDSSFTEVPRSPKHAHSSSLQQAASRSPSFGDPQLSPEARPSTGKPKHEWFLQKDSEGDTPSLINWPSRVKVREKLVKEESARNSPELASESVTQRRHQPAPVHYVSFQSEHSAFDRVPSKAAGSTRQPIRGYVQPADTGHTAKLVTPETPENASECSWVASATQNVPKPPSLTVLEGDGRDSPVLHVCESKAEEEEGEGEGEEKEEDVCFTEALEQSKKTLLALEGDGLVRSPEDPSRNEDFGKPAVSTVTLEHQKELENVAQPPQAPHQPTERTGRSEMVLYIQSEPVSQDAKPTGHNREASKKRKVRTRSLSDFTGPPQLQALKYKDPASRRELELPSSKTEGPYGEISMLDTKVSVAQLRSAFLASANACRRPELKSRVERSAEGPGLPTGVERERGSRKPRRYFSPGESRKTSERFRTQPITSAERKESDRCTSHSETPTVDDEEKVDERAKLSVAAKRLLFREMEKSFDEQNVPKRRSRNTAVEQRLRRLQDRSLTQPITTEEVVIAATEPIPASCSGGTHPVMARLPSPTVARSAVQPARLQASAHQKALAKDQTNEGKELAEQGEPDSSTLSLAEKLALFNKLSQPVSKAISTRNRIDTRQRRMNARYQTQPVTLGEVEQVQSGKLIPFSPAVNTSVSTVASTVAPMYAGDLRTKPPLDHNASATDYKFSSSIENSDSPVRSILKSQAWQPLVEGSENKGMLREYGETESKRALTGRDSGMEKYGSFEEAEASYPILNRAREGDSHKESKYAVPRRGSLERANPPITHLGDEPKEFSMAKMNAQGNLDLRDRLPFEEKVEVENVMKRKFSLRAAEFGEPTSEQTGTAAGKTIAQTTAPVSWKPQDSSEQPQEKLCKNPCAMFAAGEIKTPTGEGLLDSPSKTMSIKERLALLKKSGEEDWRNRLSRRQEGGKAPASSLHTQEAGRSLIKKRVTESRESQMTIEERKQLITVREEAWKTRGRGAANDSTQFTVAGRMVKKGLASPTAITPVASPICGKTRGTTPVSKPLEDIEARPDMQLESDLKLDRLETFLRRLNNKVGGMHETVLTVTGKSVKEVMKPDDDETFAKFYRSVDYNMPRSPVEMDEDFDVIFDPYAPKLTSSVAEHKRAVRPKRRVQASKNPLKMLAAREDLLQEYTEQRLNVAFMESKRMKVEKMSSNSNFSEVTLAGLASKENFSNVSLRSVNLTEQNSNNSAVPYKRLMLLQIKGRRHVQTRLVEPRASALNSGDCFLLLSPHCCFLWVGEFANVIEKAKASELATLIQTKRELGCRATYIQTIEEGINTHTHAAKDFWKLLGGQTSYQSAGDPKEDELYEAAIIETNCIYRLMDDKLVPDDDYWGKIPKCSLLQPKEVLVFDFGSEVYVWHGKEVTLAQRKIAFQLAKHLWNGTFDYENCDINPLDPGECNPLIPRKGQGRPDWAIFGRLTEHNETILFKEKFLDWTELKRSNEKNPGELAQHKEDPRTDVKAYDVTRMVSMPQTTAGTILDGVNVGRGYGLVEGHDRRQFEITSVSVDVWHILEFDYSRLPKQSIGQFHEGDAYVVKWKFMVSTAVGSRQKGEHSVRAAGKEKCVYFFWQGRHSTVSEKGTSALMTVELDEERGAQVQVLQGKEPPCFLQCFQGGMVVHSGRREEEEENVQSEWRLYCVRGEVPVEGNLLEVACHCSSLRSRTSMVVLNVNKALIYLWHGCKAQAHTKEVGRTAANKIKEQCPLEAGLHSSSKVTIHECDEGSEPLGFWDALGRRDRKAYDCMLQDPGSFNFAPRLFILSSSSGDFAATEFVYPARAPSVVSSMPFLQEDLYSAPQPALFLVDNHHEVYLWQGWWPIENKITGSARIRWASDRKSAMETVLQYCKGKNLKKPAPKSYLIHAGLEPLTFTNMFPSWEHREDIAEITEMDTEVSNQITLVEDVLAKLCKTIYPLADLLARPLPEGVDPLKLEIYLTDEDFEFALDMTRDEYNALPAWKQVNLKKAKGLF
UniProt Q9NP77: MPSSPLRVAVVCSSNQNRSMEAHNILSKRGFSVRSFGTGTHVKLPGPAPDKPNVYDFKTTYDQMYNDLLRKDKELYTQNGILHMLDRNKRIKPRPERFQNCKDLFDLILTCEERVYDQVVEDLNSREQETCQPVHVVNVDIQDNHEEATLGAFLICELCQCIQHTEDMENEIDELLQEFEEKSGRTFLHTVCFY
UniProt Q15527: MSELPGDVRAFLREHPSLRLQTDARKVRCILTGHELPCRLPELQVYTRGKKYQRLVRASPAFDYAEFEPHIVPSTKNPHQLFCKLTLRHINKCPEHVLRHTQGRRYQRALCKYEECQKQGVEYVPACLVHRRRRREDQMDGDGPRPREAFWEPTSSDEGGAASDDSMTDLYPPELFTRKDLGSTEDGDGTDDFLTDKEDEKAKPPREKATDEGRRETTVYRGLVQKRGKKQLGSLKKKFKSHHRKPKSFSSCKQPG
UniProt Q9NRL3: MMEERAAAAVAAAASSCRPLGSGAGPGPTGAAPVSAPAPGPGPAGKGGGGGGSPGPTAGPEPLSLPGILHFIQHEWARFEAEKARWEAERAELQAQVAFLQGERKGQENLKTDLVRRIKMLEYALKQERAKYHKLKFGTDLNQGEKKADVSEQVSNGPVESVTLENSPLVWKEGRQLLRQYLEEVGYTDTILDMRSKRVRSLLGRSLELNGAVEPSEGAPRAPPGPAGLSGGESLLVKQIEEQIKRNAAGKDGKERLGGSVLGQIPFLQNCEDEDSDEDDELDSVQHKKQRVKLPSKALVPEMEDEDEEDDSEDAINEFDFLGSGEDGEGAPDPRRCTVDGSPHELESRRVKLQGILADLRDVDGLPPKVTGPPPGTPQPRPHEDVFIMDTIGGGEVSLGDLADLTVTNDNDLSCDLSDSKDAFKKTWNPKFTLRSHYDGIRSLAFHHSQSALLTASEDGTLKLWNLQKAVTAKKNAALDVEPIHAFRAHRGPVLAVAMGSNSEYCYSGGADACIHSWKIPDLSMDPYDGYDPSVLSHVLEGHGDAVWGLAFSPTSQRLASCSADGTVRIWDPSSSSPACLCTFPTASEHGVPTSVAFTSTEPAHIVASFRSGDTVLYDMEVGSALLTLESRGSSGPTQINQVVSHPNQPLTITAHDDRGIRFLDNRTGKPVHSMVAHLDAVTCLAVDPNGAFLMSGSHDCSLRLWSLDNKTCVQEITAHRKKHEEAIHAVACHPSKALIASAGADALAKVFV

Compound: Cc1cc(ccc1-c1ccccc1)C(=O)N1CCCN(CC1)C(=O)CCl [compound 10]
Test: probe-labelled cysteine peptide fold change vs DMSO (competition) (log2 fold change); higher = less target engagement (more negative = stronger competition)
Settings: THP-1, incubation time: 4 h
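Note: competitive profiling in live THP-1 cells: cysteine peptides tagged with an iodoacetamide desthiobiotin (IA-DTB) probe, intensity after compound treatment relative to DMSO-treated cells.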

| Target | probe-labelled cysteine peptide fold change (10 µM) | probe-labelled cysteine peptide fold change (50 µM) |
| --- | --- | --- |
| STAMBP_O95630_406+408_DPPLFCSCSHVTVVDR (UniProt O95630) | -0.0134 | -0.382 |
| STAT2_P52630_323_AFVVETQPCMPQTPHRPLILK (UniProt P52630) | 0.0723 | 0.181 |
| STBD1_O95210_108_EVCDNSR (UniProt O95210) | -0.201 | -0.183 |
| SYK_P43405_206_DNNGSYALCLLHEGK (UniProt P43405) | -0.0437 | -0.0268 |
| SUPV3L1_Q8IYB8_418_FNDPNDPCK (UniProt Q8IYB8) | -0.0272 | 0.218 |
| STX4_Q12846_141_CNSMQSEYR (UniProt Q12846) | 0.00952 | -0.179 |
| STUB1_Q9UNE7_48_KYPEAAACYGR (UniProt Q9UNE7) | 0.0355 | -0.145 |
| STAMBP_O95630_286_GVETCGILCGK (UniProt O95630) | 0.09 | -0.00811 |
| SSRP1_Q08945_139_FGGQLLSFDIGDQPVFEIPLSNVSQCTTGK (UniProt Q08945) | -0.12 | 0.479 |
| SUZ12_Q15022_531_TPITHILVCRPK (UniProt Q15022) | -0.105 | -0.316 |
| STIM1_Q13586_56_IDKPLCHSEDEK (UniProt Q13586) | -0.542 | -0.218 |
| STK11IP_Q8N1F8_918_NCVSATEEEVTPQHR (UniProt Q8N1F8) | -0.116 | -0.123 |
| SUPT20H_Q8NEM7_341_SDDSQPTVWPAHDVKDDYVFECEAGTQYQK (UniProt Q8NEM7) | -0.365 | -0.157 |
| STXBP3_O00186_546_CAYEVSQAHK (UniProt O00186) | 0.00129 | 0.0519 |
| SRRM2_Q9UQ35_956_SVSPCSNVESR (UniProt Q9UQ35) | -0.0208 | 0.233 |
| SUN2_Q9UH99_601_VILQPDVHPGNCWAFQGPQGFAVVR (UniProt Q9UH99) | 0.0264 | 0.295 |
| STIP1_P31948_339_CQQAEK (UniProt P31948) | 0.44 | 0.063 |
| SUMO1_P63165_52_ESYCQR (UniProt P63165) | -0.143 | 0.237 |
| SUGP2_Q8IX01_476_TLSNPLDLALALETTNSLCR (UniProt Q8IX01) | 0.0793 | 0.43 |
| STAT6_P42226_228_CESLVDIYSQLQQEVGAAGGELEPK (UniProt P42226) | 0.0404 | -0.0978 |

Individual results from the entries so far.
probe-labelled cysteine peptide fold change (50 µM) with SYK_P43405_206_DNNGSYALCLLHEGK (UniProt P43405) is entered as -0.0268
probe-labelled cysteine peptide fold change (10 µM) with SUGP2_Q8IX01_476_TLSNPLDLALALETTNSLCR (UniProt Q8IX01) is entered as 0.0793

Next part

| Target | probe-labelled cysteine peptide fold change (10 µM) | probe-labelled cysteine peptide fold change (50 µM) |
| --- | --- | --- |
| SUPT6H_Q7KZ85_939_RIQDPLIEFAQVCSSDEDILCLK (UniProt Q7KZ85) | -0.188 | -0.239 |
| SVIL_O95425_1928_ALIYLWHGCK (UniProt O95425) | -0.173 | 0.285 |
| SUZ12_Q15022_531_TPITHILVCR (UniProt Q15022) | -0.0964 | -0.131 |
| STXBP3_O00186_90_SVDCFLHDFASK (UniProt O00186) | -0.112 | -0.222 |
| STRN3_Q13033_757_TCVQEITAHR (UniProt Q13033) | 0.117 | 0.132 |
| STXBP3_O00186_26_ATVFDDCKK (UniProt O00186) | -0.187 | -0.253 |
| STXBP3_O00186_114_AAYIYFTDFCPDNLFNK (UniProt O00186) | 0.0291 | 0.184 |
| SSU72_Q9NP77_111_DLFDLILTCEER (UniProt Q9NP77) | 0.00247 | -0.0928 |
| SUPT6H_Q7KZ85_939_IQDPLIEFAQVCSSDEDILCLK (UniProt Q7KZ85) | 0.202 | 0.0981 |
| STXBP6_Q8NFX7_144_KPEFINCQSK (UniProt Q8NFX7) | -0.284 | -0.157 |
| SUPT16H_Q9Y5B9_273_NHMHFGAITCAMGIR (UniProt Q9Y5B9) | 0.0208 | 0.273 |
| STK17B_O94768_190_KIGHACELR (UniProt O94768) | 0.158 | -0.0266 |
| SURF2_Q15527_29_CILTGHELPCR (UniProt Q15527) | 0.276 | 0.153 |
| STK24_Q9Y6E0_394_SQACGGNLGSIEELR (UniProt Q9Y6E0) | -0.158 | -0.025 |
| STRN4_Q9NRL3_733_KHEEAIHAVACHPSK (UniProt Q9NRL3) | -0.0666 | 0.103 |
| STOML2_Q9UJZ1_167_ESLNASIVDAINQAADCWGIR (UniProt Q9UJZ1) | 0.209 | 0.252 |
| SRRM1_Q8IYB3_33_FAECLEK (UniProt Q8IYB3) | 0.124 | -0.144 |
| SRRT_Q9BXP5_715_WLCPLSGKK (UniProt Q9BXP5) | 0.0525 | -0.657 |
| SSRP1_Q08945_340_ITVPGNFQGHSGAQCITCSYK (UniProt Q08945) | 0.0901 | 0.293 |
